Source: PubChem BioAssay AID200 (DTP/NCI, 2004)
The list is a part of this screen's results and no random one: it is rich in T/C values a quarter to a half above the control, in often repeated tests (any T/C) and in doses without a T/C. Further doses and runs are listed elsewhere. T/C gives the treated animals as a percentage of the vehicle group. Some doses have a count of surviving animals in place of a T/C: the source holds a T/C of zero for them, seemingly a mark for toxic or unscored doses. Some survivor counts are full or nearly so, which does not show that the dose was tolerated: survival well below the control is almost never listed, so the zero probably covers shortened survival too. Survivors were counted at the toxicity check, usually on the fifth day, unless a day is given; later deaths do not show. Schedule codes are those of the source, taken here to give the interval after Q, in days (D) or hours (H), and the number of doses after X. Some entries were tested several times; their values stand side by side, smallest first. Where survival is the endpoint, this PubChem deposit counts one and a half times the control or more as active, and values a quarter to a half above the control carry no call in these data; other NCI protocols may use other cut-offs. Some T/C values carry the count of animals alive at the toxicity check (mostly the fifth day); where none is given, no animal had died by that day.

Tested on: B6C3F1 mice, B16 melanoma ip, median survival T/C
Assay: NCI In Vivo Anticancer Drug Screen. Data for tumor model B16 Melanoma (intraperitoneal) in B6C3F1 mice
Settings: T/C endpoint: median survival time, schedule: Q01DX009 (ip), higher T/C = longer survival
Summary of the method: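 Values are T/C ratios: the measurement in treated animals divided by that in vehicle-treated controls, using survival or tumor size in mice carrying transplantable tumors.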

[1] = dose: 50.0 mg/kg/injection, vehicle: Klucel (hydroxypropylcellulose) (HPC)
[2] = dose: 5.0 mg/kg/injection, vehicle: saline with Tween-80
[3] = dose: 10.0 mg/kg/injection, vehicle: saline with Tween-80
[4] = dose: 100.0 mg/kg/injection, vehicle: saline with Tween-80
[5] = dose: 200.0 mg/kg/injection, vehicle: saline

## N=C(N)c1ccc(N=Nc2c(O)ccc3cc(O)ccc23)cc1
dose: 3.12 mg/kg/injection, vehicle: Klucel (hydroxypropylcellulose) (HPC)
  survivor count: 10 of 10
dose: 6.25 mg/kg/injection, vehicle: Klucel (hydroxypropylcellulose) (HPC)
  survivor count: 10 of 10
dose: 12.5 mg/kg/injection, vehicle: Klucel (hydroxypropylcellulose) (HPC)
  survivor count: 10 of 10
dose: 25.0 mg/kg/injection, vehicle: Klucel (hydroxypropylcellulose) (HPC)
  survivor count: 10 of 10
[1]
  survivor count: 10 of 10
dose: 100.0 mg/kg/injection, vehicle: Klucel (hydroxypropylcellulose) (HPC)
  survivor count: 10 of 10

## CCCCCCCC(=O)O[C@H]1[C@H]2[C@@H](CC1(C)C)C(=O)[C@]13O[C@H]1C(=O)[C@]1(CO1)[C@]23C
dose: 2.5 mg/kg/injection, vehicle: saline with Tween-80
  survivor count: 10 of 10
[2]
  survivor count: 10 of 10
[3]
  survivor count: 10 of 10

## CCN(CC)CCCNc1nccc2c(C)c3[nH]c4ccncc4c3cc12
dose: 12.0 mg/kg/injection, vehicle: other
  survivor count: 8 of 10

## CCOc1ncc([N+](=O)[O-])c(OCC)n1
[4]
  survivor count: 10 of 10
dose: 400.0 mg/kg/injection, vehicle: saline with Tween-80
  survivor count: 5 of 10 and 8 of 10

## [Cl][Pt][Cl].[NH-]C(CO)C(=O)O (stereo unspecified)
dose: 50.0 mg/kg/injection, vehicle: water
  survivor count: 9 of 10
dose: 100.0 mg/kg/injection, vehicle: water
  survivor count: 1 of 10

## COc1ccc(-c2cc(C(=O)Nc3cc(C(F)(F)F)cc(C(F)(F)F)c3)c3ccccc3n2)cc1
dose: 50.0 mg/kg/injection, vehicle: DMSO
  survivor count: 6 of 6
dose: 100.0 mg/kg/injection, vehicle: DMSO
  survivor count: 5 of 6
dose: 200.0 mg/kg/injection, vehicle: DMSO
  survivor count: 6 of 6
dose: 400.0 mg/kg/injection, vehicle: DMSO
  survivor count: 5 of 6
dose: 800.0 mg/kg/injection, vehicle: DMSO
  survivor count: 3 of 5

## CN1[C@@H](CC(=O)c2ccccc2)CCC[C@H]1CC(=O)c1ccccc1
[5]
  survivor count: 6 of 10

## COC(=O)[C@@]12OC[C@]34[C@H]([C@@H](O)[C@@H]1O)[C@@]1(C)CC(=O)C(O)=C(C)[C@@H]1C[C@H]3OC(=O)[C@H](OC(=O)/C=C(\C)C(C)CO)[C@@H]24 (stereo partly specified)
dose: 1.0 mg/kg/injection, vehicle: saline + alcohol
  T/C: 109, 115, 125, 168 % of control
dose: 2.0 mg/kg/injection, vehicle: saline + alcohol
  T/C: 121, 141, 157, 200 % of control
dose: 4.0 mg/kg/injection, vehicle: saline + alcohol
  T/C: 142, 162, 184 [9 of 10 alive], 185 % of control

## C=C[Si]12OCCN(CCO1)CCO2
[1]
  survivor count: 9 of 9
dose: 400.0 mg/kg/injection, vehicle: Klucel (hydroxypropylcellulose) (HPC)
  survivor count: 9 of 10 and 10 of 10

## COc1cc(C2c3cc4c(cc3[C@@H](OC3OC5CO[C@@H](C)OC5C(O)C3O)[C@H]3COC(=O)C23)OCO4)cc(OC)c1OC (stereo partly specified)
dose: 12.5 mg/kg/injection, vehicle: saline
  T/C: 128 % of control
dose: 36.0 mg/kg/injection, vehicle: suspension in saline
  T/C: 139 % of control
dose: 166.67 mg/kg/injection, vehicle: suspension in saline
  survivor count: 10 of 10
[5]
  survivor count: 10 of 10

## CCC(C)n1ncc2c(N(C)C)ncnc21 (stereo unspecified)
dose: 25.0 mg/kg/injection, vehicle: saline with Tween-80
  survivor count: 9 of 10
dose: 50.0 mg/kg/injection, vehicle: saline with Tween-80
  survivor count: 7 of 10
[4]
  survivor count: 0 of 10

## O=[N+]([O-])c1ccc(N2CCOCC2)c2c1no[n+]2[O-]
dose: 200.0 mg/kg/injection, vehicle: saline with Tween-80
  survivor count: 6 of 10

## [Cl][Pt+2][Cl].[NH-]c1ccc(Cl)cc1[NH-]
[2]
  T/C: 133 % of control
[3]
  T/C: 141 % of control
dose: 40.0 mg/kg/injection, vehicle: saline with Tween-80
  survivor count: 10 of 10
